Laboratory results published in patent US20040209850A1, “Methods of treating pain and compositions for use therefor” (TheraQuest Biosciences, LLC, priority 2003, published 2004).

System: rat
Test: Tail-flick test: antinociception of albuterol, morphine and morphine plus albuterol (% MPE, A50)
Format: in vivo
From the text: The tail flick test was first described by D'Amour and Smith (1941), and remains essentially unchanged in application. (See generally D'Amour, F. E. and Smith, D. L., “A method for determining loss of pain sensation”, J. Pharmacol. Exp. Therap., 72:74-79(1941); Dewey, D. L. and Harris, L. S., The Tail-flick test. In: S. Ehrenpreis and A. Neidle (Eds.), Methods in Narcotic Research, Marcel Dekker, Inc., New York, 1975, pp. 101-109; and Dubner, R. and Ren, K., “Assessing transient and persistent pain in animals.” In: P. D. Wall and R. Melzack (Eds.), Textbook of Pain, Churchill Livingstone, London, 1999, pp. 359-369). Quite simply, the tail of a rat or mouse is exposed to radiant heat, and the latency to withdraw is determined. The basal heat intensity is set so that naive rats withdraw their tails within 2 to 3 sec. A cut-off latency of 10 sec (i.e., 3 to 4 times basal control value) is commonly employed to prevent tissue damage. […]
The tail-flick test is considered to be very robust in that weak analgesic agents are not detected by this test. […]
Baseline refers to the pre-treatment tail-flick latencies, and 8.2 represents the maximal effect. […] The A50 values and confidence intervals for each of the dose-effect curves were determined from linear regression analysis of the logdose-effect curves. […]

CN1CC[C@]23c4c5ccc(O)c4O[C@H]2[C@@H](O)C=C[C@H]3[C@H]1C5 [Morphine]
slope of dose-response curve (30 minutes): 104 | slope of dose-response curve (60 minutes): 123
